Assay results reported in the supplement of paper PMC10849652.
This is one part of the list. Residues, ends and D or L forms follow the SMILES beside them. *: point of attachment. Cbz = O=C(OCc1ccccc1)*

Protein sequences, listed by entry. Tags and fused reporters are not part of them. Lines headed by an entry give the natural chain unless they say otherwise; changes in a name come on top.
UniProt P11117: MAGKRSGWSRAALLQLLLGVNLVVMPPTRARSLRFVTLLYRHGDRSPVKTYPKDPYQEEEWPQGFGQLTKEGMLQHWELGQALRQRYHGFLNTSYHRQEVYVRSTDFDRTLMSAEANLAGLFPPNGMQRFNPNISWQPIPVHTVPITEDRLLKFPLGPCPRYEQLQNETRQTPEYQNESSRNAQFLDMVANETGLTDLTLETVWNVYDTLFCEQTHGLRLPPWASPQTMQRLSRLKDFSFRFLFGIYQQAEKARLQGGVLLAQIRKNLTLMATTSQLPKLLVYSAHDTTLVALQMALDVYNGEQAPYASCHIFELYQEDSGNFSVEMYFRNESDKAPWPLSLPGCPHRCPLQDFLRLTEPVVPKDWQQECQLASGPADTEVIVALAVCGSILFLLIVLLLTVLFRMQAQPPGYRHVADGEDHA
UniProt O95573: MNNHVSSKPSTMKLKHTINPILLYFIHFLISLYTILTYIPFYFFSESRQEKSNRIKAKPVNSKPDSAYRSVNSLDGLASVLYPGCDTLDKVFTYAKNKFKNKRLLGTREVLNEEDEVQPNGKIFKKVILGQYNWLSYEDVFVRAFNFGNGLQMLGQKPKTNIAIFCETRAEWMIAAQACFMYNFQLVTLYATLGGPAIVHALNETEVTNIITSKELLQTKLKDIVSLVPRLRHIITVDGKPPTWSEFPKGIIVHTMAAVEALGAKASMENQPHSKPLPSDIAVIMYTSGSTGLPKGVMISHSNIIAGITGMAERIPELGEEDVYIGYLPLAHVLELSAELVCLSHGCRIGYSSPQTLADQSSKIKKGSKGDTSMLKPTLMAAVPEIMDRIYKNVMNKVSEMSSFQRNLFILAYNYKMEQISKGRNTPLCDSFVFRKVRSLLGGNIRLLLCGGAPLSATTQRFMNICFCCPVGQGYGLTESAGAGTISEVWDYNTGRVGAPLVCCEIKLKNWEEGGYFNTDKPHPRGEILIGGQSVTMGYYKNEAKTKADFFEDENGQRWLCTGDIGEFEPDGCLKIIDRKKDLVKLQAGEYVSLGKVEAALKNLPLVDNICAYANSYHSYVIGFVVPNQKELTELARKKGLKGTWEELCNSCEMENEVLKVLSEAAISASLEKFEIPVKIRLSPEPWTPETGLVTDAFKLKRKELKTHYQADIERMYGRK
UniProt P24666: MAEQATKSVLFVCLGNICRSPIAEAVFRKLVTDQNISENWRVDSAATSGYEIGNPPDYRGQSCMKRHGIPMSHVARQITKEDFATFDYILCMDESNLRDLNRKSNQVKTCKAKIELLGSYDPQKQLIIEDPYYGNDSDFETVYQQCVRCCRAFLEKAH
UniProt O60488: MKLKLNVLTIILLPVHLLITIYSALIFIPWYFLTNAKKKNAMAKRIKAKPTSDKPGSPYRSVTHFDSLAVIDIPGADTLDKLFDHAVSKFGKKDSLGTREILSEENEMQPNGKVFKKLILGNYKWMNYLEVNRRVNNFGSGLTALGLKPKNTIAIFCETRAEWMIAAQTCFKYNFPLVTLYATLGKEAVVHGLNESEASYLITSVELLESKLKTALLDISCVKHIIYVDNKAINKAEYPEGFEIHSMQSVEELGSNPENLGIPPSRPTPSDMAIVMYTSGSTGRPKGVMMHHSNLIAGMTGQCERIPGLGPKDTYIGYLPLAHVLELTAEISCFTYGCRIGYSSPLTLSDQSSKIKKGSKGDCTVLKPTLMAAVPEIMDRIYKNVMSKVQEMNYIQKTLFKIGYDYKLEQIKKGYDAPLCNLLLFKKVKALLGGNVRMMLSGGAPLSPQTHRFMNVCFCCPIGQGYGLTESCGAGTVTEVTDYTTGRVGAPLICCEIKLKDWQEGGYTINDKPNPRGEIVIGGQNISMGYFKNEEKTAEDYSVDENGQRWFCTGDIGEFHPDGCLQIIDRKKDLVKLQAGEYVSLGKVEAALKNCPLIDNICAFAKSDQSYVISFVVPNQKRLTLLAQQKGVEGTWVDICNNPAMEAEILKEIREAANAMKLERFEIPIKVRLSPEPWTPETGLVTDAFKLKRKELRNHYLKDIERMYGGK
UniProt P33897: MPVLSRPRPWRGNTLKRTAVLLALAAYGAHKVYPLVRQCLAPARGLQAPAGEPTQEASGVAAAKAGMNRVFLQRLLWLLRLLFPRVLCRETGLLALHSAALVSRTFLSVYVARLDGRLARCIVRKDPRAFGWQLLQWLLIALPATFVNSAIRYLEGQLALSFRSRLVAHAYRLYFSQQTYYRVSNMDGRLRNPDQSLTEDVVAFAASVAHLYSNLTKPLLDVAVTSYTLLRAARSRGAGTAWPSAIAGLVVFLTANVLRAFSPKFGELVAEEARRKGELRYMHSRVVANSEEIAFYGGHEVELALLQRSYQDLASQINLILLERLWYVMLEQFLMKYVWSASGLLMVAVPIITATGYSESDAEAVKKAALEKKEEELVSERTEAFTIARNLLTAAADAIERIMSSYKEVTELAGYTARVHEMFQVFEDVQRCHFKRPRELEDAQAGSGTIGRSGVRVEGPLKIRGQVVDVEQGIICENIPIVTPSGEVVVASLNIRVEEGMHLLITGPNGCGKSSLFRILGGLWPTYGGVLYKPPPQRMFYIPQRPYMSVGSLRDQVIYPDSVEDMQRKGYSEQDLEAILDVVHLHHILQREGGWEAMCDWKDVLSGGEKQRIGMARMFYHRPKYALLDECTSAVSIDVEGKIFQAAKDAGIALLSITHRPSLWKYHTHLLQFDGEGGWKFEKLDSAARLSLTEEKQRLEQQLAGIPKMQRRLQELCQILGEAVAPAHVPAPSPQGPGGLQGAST
UniProt O15254: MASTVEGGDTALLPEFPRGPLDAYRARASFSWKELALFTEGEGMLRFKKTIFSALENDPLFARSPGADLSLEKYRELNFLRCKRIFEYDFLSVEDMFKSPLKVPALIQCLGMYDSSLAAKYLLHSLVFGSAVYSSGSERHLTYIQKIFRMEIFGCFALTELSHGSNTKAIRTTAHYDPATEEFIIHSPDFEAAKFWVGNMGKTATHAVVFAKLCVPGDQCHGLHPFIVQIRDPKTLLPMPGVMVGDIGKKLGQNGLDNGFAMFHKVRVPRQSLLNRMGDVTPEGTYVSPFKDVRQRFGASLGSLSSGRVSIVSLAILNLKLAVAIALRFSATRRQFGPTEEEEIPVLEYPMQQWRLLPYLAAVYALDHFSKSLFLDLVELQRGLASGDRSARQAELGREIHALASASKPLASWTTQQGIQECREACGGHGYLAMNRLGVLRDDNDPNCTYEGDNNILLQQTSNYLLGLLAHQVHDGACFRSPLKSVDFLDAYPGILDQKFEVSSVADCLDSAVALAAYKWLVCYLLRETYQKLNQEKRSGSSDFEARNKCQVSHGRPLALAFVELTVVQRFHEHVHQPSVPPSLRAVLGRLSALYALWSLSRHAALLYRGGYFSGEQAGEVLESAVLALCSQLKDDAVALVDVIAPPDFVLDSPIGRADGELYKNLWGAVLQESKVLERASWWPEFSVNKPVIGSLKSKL
UniProt Q562R1, whole entry, looked up: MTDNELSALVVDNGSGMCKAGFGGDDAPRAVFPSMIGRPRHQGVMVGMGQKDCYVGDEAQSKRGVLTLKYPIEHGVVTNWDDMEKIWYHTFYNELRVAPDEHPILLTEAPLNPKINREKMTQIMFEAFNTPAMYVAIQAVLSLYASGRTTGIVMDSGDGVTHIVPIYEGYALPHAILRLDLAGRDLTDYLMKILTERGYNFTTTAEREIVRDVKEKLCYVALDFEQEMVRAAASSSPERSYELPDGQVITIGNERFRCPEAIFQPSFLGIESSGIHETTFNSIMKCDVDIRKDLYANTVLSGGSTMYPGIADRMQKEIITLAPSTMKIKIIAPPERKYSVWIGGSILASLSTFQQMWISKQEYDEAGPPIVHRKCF
UniProt Q9Y312: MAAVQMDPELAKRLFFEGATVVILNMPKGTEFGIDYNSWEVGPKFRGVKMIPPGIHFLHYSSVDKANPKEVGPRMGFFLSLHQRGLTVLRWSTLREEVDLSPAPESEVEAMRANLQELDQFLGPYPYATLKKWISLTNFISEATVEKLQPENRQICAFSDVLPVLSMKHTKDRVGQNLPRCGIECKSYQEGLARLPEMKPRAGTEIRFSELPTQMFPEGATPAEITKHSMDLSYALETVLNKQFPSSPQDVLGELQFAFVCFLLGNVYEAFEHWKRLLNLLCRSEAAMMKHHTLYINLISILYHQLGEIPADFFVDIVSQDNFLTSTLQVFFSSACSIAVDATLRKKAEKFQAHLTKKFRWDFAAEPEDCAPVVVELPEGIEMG
UniProt Q15057: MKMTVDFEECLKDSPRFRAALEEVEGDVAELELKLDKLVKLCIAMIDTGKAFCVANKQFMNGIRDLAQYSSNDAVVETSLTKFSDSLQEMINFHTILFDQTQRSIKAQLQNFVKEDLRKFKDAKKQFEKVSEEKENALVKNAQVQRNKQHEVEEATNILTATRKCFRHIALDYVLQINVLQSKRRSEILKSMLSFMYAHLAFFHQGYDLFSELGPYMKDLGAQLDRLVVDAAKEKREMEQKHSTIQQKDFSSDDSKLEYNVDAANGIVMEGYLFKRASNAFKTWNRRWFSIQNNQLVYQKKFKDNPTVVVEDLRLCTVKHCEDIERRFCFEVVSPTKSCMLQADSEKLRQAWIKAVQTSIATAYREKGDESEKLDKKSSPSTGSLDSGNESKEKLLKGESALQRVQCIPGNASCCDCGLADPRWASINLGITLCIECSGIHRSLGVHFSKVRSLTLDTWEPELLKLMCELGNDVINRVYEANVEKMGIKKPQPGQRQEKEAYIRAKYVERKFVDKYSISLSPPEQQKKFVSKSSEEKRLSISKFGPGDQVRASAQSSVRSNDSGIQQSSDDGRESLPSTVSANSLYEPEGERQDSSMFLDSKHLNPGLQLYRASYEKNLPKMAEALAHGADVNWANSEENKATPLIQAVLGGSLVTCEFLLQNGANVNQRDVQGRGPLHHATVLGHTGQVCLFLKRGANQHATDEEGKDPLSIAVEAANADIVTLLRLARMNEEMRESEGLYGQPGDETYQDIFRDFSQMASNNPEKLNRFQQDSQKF
UniProt P11310: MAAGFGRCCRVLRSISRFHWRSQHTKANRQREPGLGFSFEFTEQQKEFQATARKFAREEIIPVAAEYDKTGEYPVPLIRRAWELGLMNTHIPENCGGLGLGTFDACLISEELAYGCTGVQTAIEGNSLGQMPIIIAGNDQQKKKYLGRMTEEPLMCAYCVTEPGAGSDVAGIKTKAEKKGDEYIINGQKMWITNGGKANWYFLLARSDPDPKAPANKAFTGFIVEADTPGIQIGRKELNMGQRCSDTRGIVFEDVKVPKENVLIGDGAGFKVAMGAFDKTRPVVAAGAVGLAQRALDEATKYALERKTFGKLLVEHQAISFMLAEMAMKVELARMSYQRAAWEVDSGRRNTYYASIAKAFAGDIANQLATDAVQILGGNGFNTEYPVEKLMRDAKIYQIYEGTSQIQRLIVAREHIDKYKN
UniProt Q04771: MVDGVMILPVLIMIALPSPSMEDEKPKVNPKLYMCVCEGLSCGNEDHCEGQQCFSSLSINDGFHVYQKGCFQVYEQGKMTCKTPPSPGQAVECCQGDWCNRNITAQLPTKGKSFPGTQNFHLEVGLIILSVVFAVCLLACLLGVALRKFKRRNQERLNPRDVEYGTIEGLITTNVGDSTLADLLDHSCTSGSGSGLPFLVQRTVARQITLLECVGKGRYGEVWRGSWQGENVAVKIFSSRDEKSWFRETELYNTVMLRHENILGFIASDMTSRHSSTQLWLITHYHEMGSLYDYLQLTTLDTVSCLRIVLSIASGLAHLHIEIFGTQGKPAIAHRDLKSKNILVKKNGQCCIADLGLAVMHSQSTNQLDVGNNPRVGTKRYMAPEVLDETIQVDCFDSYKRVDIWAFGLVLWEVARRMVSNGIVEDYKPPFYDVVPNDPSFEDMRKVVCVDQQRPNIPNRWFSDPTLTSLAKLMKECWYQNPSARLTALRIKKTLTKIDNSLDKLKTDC
UniProt Q5T8D3: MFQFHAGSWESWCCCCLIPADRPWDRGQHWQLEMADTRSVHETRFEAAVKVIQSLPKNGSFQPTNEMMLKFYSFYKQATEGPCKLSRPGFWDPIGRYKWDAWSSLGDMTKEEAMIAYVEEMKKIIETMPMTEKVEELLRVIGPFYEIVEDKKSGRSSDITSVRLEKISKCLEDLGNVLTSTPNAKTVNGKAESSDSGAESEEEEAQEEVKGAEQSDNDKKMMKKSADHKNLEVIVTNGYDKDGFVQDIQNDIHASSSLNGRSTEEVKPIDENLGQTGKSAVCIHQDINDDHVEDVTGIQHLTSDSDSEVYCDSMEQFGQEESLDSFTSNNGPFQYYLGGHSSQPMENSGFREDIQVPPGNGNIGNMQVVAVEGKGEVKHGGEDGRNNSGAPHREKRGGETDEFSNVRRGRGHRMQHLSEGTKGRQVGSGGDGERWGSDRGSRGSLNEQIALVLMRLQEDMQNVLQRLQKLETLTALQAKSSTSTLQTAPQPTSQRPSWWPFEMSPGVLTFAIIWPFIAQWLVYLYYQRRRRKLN

Tests used:
Experiment in all cases: log2 fold change, soluble protein after heating vs DMSO (PISA); higher = thermal stabilisation; K562 cells, 10 uM, 30 min; active = over 0.2 and 3.5 SD of the protein, either way, in both replicates (recomputed)
erlotinib = compound: C#Cc1cccc(Nc2ncnc3cc(OCCOC)c(OCCOC)cc23)c1 [erlotinib]
How it was run: (§1)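 K562 cells at 2×10^6 cells/mL were treated for 30 min with 10 μM compound, and aliquots were heated for 3 min over 48°C-58°C before pooling. Extraction used PBS with 0.5% NP-40 at 4°C, and soluble protein was the supernatant after 21,000xg for 90 min, measured by TMTpro 16plex LC-MS/MS with channel sums equalised. Thermal stability values, relative to control samples and from duplicates, are log2 fold changes.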

[1] = compound: C/C(=N\NC(=O)C1=CC(=CC=C1)S(=O)(=O)N2CCOCC2)/C3=C(C=CC(=C3)Cl)O
How it was run: as §1

[2] = compound: C1=CC(=C(C=C1Cl)C2=NC3=NC=CN=C3C(=N2)NC4=CC=NC=C4)F
How it was run: as §1

[3] = compound: C1=CC(=CC=C1C2=NC3=C(N2)C=C(C=C3)C(=O)N)OC4=CC=C(C=C4)Cl
How it was run: as §1

[4] = compound: C1=CC2=C(C=CC(=C2)/C=C\3/C(=O)NC(=NCC4=CC=CS4)S3)N=C1
How it was run: as §1

[5] = compound: C1=CC2=NC=CN=C2C=C1/C=C/3\C(=O)NC(=O)S3
How it was run: as §1

[6] = compound: C1=CC=C(C=C1)C2=NC(=C(N2)C3=CC=NC=C3)C4=CC(=C(C=C4)Cl)O
How it was run: as §1

[7] = compound: C1=CC=C2C(=C1)C3=NNC4=CC=CC(=C43)C2=O
How it was run: as §1

[8] = compound: C1CCN(C1)C(=O)NC2=CC=CC(=C2)NC3=NC=C(C(=N3)NCCC4=CN=CN4)Br
How it was run: as §1

[9] = compound: C1CN(CCC1(CC2=CC=C(C=C2)Cl)N)C3=NC=NC4=C3C=CN4
How it was run: as §1

IRAK-1-4 Inhibitor I = compound: C1COCCN1CCN2C3=CC=CC=C3N=C2NC(=O)C4=CC(=CC=C4)[N+](=O)[O-] [IRAK-1-4 Inhibitor I]
How it was run: as §1

ibrutinib = compound: C=CC(=O)N1CCC[C@@H](n2nc(-c3ccc(Oc4ccccc4)cc3)c3c(N)ncnc32)C1 [ibrutinib]
How it was run: as §1

[10] = compound: CC(=O)c1cnc2ccc(-c3cc(Cl)c(O)c(Cl)c3)nc2c1N[C@H]1CC[C@H](CN(C)C)CC1
How it was run: as §1

ralimetinib = compound: CC(C)(C)Cn1c(N)nc2ccc(-c3[nH]c(C(C)(C)C)nc3-c3ccc(F)cc3)nc21 [ralimetinib]
How it was run: as §1

[11] = compound: CC(C)(O)CC(=O)NCCn1ccc2ncnc(Nc3ccc(Oc4cccc(C(F)(F)F)c4)c(Cl)c3)c21
How it was run: as §1

[12] = compound: CC(C)C1=C2N=C(C=C(N2N=C1)NCC3=CC=CC=C3)NCCCCCCN
How it was run: as §1

[13] = compound: CC(C)C[C@@H](C=O)NC(=O)[C@H](CC(C)C)NC(=O)[C@H](CC(C)C)NC(=O)OCc1ccccc1
How it was run: as §1

pinometostat = compound: CC(C)N(C[C@H]1O[C@@H](n2cnc3c(N)ncnc32)[C@H](O)[C@@H]1O)[C@H]1C[C@@H](CCc2nc3cc(C(C)(C)C)ccc3[nH]2)C1 [pinometostat]
How it was run: as §1

[14] = compound: CC1=C(C2=C(C=C1)C(=O)C3=CC=CC=C3N2CCCN)C
How it was run: as §1

[15] = compound: CC1=C(C(CC(=O)N1)C2=CC=C(C=C2)C(F)(F)F)C(=O)NC3=C(C=C4C(=C3)C=NN4)F
How it was run: as §1

Target	log2 fold change (erlotinib)	log2 fold change [1]	log2 fold change [2]	log2 fold change [3]	log2 fold change [4]	log2 fold change [5]	log2 fold change [6]	log2 fold change [7]	log2 fold change [8]	log2 fold change [9]	log2 fold change (IRAK-1-4 Inhibitor I)	log2 fold change (ibrutinib)	log2 fold change [10]	log2 fold change (ralimetinib)	log2 fold change [11]	log2 fold change [12]	log2 fold change [13]	log2 fold change (pinometostat)	log2 fold change [14]	log2 fold change [15]
ACP2 (UniProt P11117)	inactive: 0.031	inactive: 0.004	inactive: 0.061	inactive: 0.019	inactive: 0.019	inactive: -0.01	inactive: 0.022	inactive: -0.022	inactive: -0.003	inactive: 0.045	inactive: 0.047	inactive: 0.033	inactive: -0.012	inactive: -0.012	inactive: -0.03	inactive: -0.205	inactive: -0.026	inactive: 0.027	inactive: -0.006	
ACSL3 (UniProt O95573)	inactive: -0.005	inactive: 0.055	inactive: 0.092	active: 0.351	inactive: 0.078	inactive: 0.031	inactive: 0.06	inactive: 0.069	inactive: -0.005	inactive: 0.039	inactive: 0	inactive: -0.001	inactive: -0.035	inactive: -0.009	inactive: -0.086	inactive: -0.025	inactive: -0.009	inactive: -0.004	inactive: 0.035	
ACP1 isoform 2 (UniProt P24666)	inactive: 0.072	inactive: 0.011	inactive: 0.038	inactive: 0.024	inactive: 0.029	inactive: -0.008	inactive: -0.018	inactive: 0	inactive: 0.004	inactive: -0.039	inactive: -0.082	inactive: -0.028	inactive: -0.013	inactive: 0.009	active: -0.264	inactive: -0.109	inactive: -0.039	inactive: 0.073	active: -0.296	
ACSL4 (UniProt O60488)	inactive: 0.16	inactive: 0.02	inactive: -0.021	active: 0.727	inactive: 0.13	inactive: 0.024	inactive: 0.226	active: 0.357	inactive: -0.058	inactive: -0.002	inactive: -0.067	inactive: 0.001	inactive: 0	inactive: 0.049	inactive: -0.237	active: -0.443	inactive: 0.038	inactive: 0.098	inactive: 0	
ABCD1 (UniProt P33897)	inactive: 0.053	inactive: 0.068	inactive: -0.178	inactive: -0.034	inactive: 0.071			inactive: 0.01			inactive: -0.036		inactive: 0.007		inactive: -0.098	inactive: 0.017		inactive: 0.021		
ACOX3 (UniProt O15254)	inactive: 0.158	inactive: -0.157	inactive: -0.068	inactive: 0.007	inactive: -0.122	inactive: -0.026		inactive: 0.071	inactive: 0.153	inactive: 0.054	inactive: 0.095	inactive: 0.035	inactive: -0.177		inactive: 0.061	inactive: 0.022		inactive: -0.021	inactive: -0.051	
ACIN1 (UniProt Q9UKV3)	inactive: 0.116	inactive: -0.1	inactive: -0.033	inactive: 0.006	inactive: 0.051	inactive: 0.007	inactive: 0	inactive: -0.012	inactive: -0.041	inactive: -0.038	inactive: -0.052	inactive: 0.004	inactive: -0.155	inactive: 0.063	inactive: 0.043	inactive: -0.022	inactive: -0.026	inactive: -0.006	active: -0.369	
ACO2 (UniProt Q99798)	inactive: 0.049	inactive: 0.008	inactive: 0.105	inactive: -0.014	inactive: 0.077	active: -0.244	inactive: 0.036	inactive: 0.009	inactive: 0.018	inactive: 0.015	inactive: 0.023	inactive: 0.025	inactive: -0.016	inactive: -0.019	inactive: -0.068	inactive: -0.058	inactive: -0.022	inactive: -0.033	inactive: 0.076	
ACTBL2 (UniProt Q562R1)	inactive: -0.247	inactive: -0.805	inactive: 0.093	inactive: 0.025	inactive: -0.419	inactive: -0.215	inactive: 0.047	inactive: 0.147				inactive: 0	inactive: -0.156	inactive: 0.351	inactive: 0.132	inactive: 0.372	inactive: 0.195			
AAR2 (UniProt Q9Y312)	inactive: 0.075	inactive: 0.089	inactive: -0.113	inactive: 0.057	inactive: 0.103	inactive: 0.049	inactive: -0.003	inactive: -0.137	inactive: -0.008	inactive: 0.043	inactive: 0.039	inactive: 0.02	inactive: 0.021	inactive: -0.002	inactive: -0.062	inactive: -0.012	inactive: 0.104	inactive: 0.024	inactive: -0.035	
AAK1, A0A096LP25	inactive: 0.043	inactive: -0.092	inactive: -0.027	inactive: 0.02	inactive: 0.234	inactive: 0.107	inactive: 0.017	inactive: 0.254	inactive: 0.255	inactive: 0	inactive: -0.063	inactive: 0.074	inactive: 0.319	inactive: -0.01	inactive: -0.034	inactive: -0.145	inactive: 0.065	inactive: -0.033	inactive: -0.044	
ACTN1 (UniProt H9KV75)	inactive: 0.177	inactive: -0.162	inactive: -0.037	inactive: -0.033	inactive: 0.135	inactive: -0.14		inactive: 0.221	inactive: -0.211	inactive: 0.102		inactive: -0.023	inactive: -0.04		inactive: -0.155	inactive: 0.141			inactive: 0.092	inactive: 0.183
ACSS1 (UniProt Q9NUB1)	inactive: -0.037	inactive: 0.019		inactive: -0.007	inactive: 0.035	inactive: 0	inactive: -0.231	inactive: -0.029	inactive: 0.122	inactive: -0.054	inactive: 0.046	inactive: 0.056	inactive: 0.042	inactive: -0.024		inactive: -0.002	inactive: 0.089	inactive: -0.129	inactive: -0.303	inactive: 0.091
ACAP2 (UniProt Q15057)	inactive: -0.002	inactive: 0.054	inactive: 0.062	inactive: -0.05	inactive: 0.056	inactive: 0.037	inactive: -0.032	inactive: -0.012	inactive: -0.042	inactive: -0.013	inactive: -0.033	inactive: -0.012	inactive: -0.038	inactive: 0	inactive: -0.031	inactive: -0.065	inactive: 0.061	inactive: 0.029	inactive: 0.004	
ACADM isoform 2 (UniProt P11310)	inactive: -0.015	inactive: 0.014	inactive: 0.013	inactive: 0.149	inactive: 0.044	inactive: 0.002	inactive: 0.059	inactive: -0.001	inactive: 0.008	inactive: 0.067	inactive: 0.028	inactive: 0.034	inactive: -0.013	inactive: -0.068	inactive: -0.043	inactive: 0.051	inactive: -0.001	inactive: -0.085	inactive: 0	
ACLY isoform 2 (UniProt P53396)	inactive: -0.01	inactive: 0.055	inactive: 0.033	inactive: -0.016	inactive: -0.123	inactive: -0.133	inactive: 0.027	inactive: 0.067	inactive: -0.018	inactive: -0.082		inactive: 0.087	inactive: 0.177	inactive: -0.13	inactive: -0.033	inactive: 0.055	inactive: 0.012		inactive: -0.204	inactive: 0.031
ACVR1 (UniProt Q04771)	inactive: -0.101	inactive: -0.051	inactive: 0.021	inactive: 0.031	inactive: -0.021			inactive: 0.136	inactive: -0.326	inactive: 0.035			active: 0.873		inactive: -0.158	inactive: 0.06			inactive: 0.127	
ACBD5 (UniProt Q5T8D3)	inactive: 0.232	inactive: 0.216	inactive: -0.228	inactive: -0.101	inactive: -0.047		inactive: -0.046	inactive: -0.185	inactive: -0.003	inactive: 0.059	inactive: -0.179		inactive: -0.002	inactive: -0.044	inactive: -0.028	inactive: 0.094	inactive: 0.039	inactive: 0.107	inactive: 0.329	

A second format for some results above:
Target,log2 fold change (erlotinib),log2 fold change [1],log2 fold change [2],log2 fold change [3],log2 fold change [4],log2 fold change [5],log2 fold change [6],log2 fold change [7],log2 fold change [8],log2 fold change [9],log2 fold change (IRAK-1-4 Inhibitor I),log2 fold change (ibrutinib),log2 fold change [10],log2 fold change (ralimetinib),log2 fold change [11],log2 fold change [12],log2 fold change [13],log2 fold change (pinometostat),log2 fold change [14],log2 fold change [15]
ACAP2 (UniProt Q15057),inactive: -0.002,inactive: 0.054,inactive: 0.062,inactive: -0.05,inactive: 0.056,inactive: 0.037,inactive: -0.032,inactive: -0.012,inactive: -0.042,inactive: -0.013,inactive: -0.033,inactive: -0.012,inactive: -0.038,inactive: 0,inactive: -0.031,inactive: -0.065,inactive: 0.061,inactive: 0.029,inactive: 0.004,
ACADM isoform 2 (UniProt P11310),inactive: -0.015,inactive: 0.014,inactive: 0.013,inactive: 0.149,inactive: 0.044,inactive: 0.002,inactive: 0.059,inactive: -0.001,inactive: 0.008,inactive: 0.067,inactive: 0.028,inactive: 0.034,inactive: -0.013,inactive: -0.068,inactive: -0.043,inactive: 0.051,inactive: -0.001,inactive: -0.085,inactive: 0,
